In paper PMC1831719, “Elucidating the Ticking of an In Vitro Circadian Clockwork” (PLoS Biology, 2007):
These are yes or no findings as the source states them, for the method shown. Some results given as binding are weak or reduced against the parent protein; the word gives no strength.

Key:
[1] = molecular target: T1, KaiC (S. elongatus) (UniProt Q79PF4); test: negative-stain electron microscopy with image classification; defined samples for comparison: KaiC alone, KaiA mixed with KaiC, KaiB mixed with KaiC (30 °C, examined at various times; 6 h for KaiB•KaiC; reconstruction at about 20 Å); both purified
T1 sequence: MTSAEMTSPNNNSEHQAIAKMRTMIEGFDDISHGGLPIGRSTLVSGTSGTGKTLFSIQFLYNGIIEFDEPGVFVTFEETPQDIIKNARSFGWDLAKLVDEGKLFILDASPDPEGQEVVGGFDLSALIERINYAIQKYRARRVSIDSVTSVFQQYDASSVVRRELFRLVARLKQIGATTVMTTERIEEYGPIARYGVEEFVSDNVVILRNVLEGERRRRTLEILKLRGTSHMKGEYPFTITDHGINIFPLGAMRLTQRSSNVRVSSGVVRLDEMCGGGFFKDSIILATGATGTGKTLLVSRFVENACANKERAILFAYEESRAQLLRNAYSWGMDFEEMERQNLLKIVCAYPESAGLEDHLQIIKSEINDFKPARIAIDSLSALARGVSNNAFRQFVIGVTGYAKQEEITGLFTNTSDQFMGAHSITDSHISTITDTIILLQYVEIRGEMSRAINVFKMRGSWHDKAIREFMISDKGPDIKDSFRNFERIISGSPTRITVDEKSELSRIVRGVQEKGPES

[2] = molecular target: T1, KaiC (S. elongatus); test: native gel or EMSA; 2-D blue-native/SDS-PAGE of aliquots of the KaiABC cycling reaction at 18, 24, 33 and 39 h; BN-PAGE on 4%-20% Bis-Tris gel at 4-6 °C for 10 h with 1 mM ATP and 5 mM MgCl2 in the cathode buffer; Coomassie stain, densitometry; both purified
[3] = molecular target: T1, KaiC (S. elongatus); test: negative-stain electron microscopy with image classification; aliquots every 3 h from the oscillating KaiA/KaiB/KaiC mixture (50 ng/ul KaiA, 50 ng/ul KaiB, 200 ng/ul KaiC, 1 mM ATP, 30 °C); 0.75% uranyl formate; particles sorted into four meta classes at seven phases; both purified

Measured: binding

B1: KaiA (protein, UniProt Q79PF6 1-284)
chain: MLSQIAICIWVESTAILQDCQRALSADRYQLQVCESGEMLLEYAQTHRDQIDCLILVAANPSFRAVVQQLCFEGVVVPAIVVGDRDSEDPDEPAKEQLYHSAELHLGIHQLEQLPYQVDAALAEFLRLAPVETMADHIMLMGANHDPELSSQQRDLAQRLQERLGYLGVYYKRDPDRFLRNLPAYESQKLHQAMQTSYREIVLSYFSPNSNLNQSIDNFVNMAFFADVPVTKVVEIHMELMDEFAKKLRVEGRSEDILLDYRLTLIDVIAHLCEMYRRSIPRET
binds: all assays above
